{
  "source": "patent US20170137817",
  "key": {"[1]": {"target": "T1, STAT5B (recombinant) (Mus musculus) (UniProt P42232)", "T1 sequence": "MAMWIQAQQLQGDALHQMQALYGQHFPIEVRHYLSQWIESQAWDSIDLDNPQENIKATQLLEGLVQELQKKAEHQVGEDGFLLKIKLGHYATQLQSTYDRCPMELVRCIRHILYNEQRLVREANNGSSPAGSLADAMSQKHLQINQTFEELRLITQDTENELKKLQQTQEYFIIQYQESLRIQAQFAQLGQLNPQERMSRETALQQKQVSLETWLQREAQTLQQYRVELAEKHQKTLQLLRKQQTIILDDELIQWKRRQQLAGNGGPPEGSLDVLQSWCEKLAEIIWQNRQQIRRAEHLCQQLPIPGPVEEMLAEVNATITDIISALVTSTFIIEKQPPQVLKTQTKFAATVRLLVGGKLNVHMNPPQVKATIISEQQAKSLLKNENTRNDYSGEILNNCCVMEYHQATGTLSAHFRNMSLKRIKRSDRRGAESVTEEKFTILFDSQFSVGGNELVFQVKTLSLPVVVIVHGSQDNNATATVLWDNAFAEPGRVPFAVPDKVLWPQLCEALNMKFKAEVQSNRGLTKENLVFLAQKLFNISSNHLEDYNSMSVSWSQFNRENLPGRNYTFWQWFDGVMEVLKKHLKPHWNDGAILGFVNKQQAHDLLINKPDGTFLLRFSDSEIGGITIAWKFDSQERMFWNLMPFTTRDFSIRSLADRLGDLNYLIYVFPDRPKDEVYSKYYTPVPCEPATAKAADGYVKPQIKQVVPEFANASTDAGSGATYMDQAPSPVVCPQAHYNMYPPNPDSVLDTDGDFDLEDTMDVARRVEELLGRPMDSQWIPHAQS", "experiment": "SELEX", "details": "selected on His-tag Dynabeads-captured STAT5B, overnight 4 C; purified recombinant protein; single-stranded DNA"}, "[2]": {"system": "STAT5 (endogenous, activated, KU-812 cells) (Homo sapiens)", "experiment": "pull-down", "details": "streptavidin bead pull-down and Western blot; 200 pmol aptamer, 200 ug extract, Tris pH 7.5, NaCl, EDTA, glycerol, NP40, on ice; protein in an extract; label: biotin; single-stranded DNA; variant of Apta1"}, "[3]": {"target": "T2, STAT5B 1*6 (oncogenic form) (UniProt P42232)", "T2 sequence (looked up, limits assumed)": "T1 sequence", "experiment": "pull-down", "details": "streptavidin bead pull-down and Western blot; 200 pmol aptamer, 200 ug extract, Tris pH 7.5, NaCl, EDTA, glycerol, NP40, on ice; protein in an extract; label: biotin; single-stranded DNA; variant of Apta1"}},
  "note": "The exact form of at least one protein or probe is not confirmed. For some assays here: Where cells or extracts were used, other partners may take part. For some assays here: Where a protein sequence is shown, tags need not be part of it.",
  "data": [
    {"sequence": "ATACCAGCTTATTCAATTGTGTCTGTTCACTCGTCGATACACAACATACTCAACCCAGGCCCCTGACTGCTAATCCCCAGATAGTAAGTGCAATCT [Apta3]", "values": [
      {"measurement": "selection result", "setting": "[1]", "value": "selected"}
    ]},
    {"sequence": "ATACCAGCTTATTCAATTGTGTCTGTTCACTCGTCGATACACAGCATACTCAACCCAGGCCCCTGACTGCTAATCCCCAGATAGTAAGTGCAATCT [Apta2]", "values": [
      {"measurement": "selection result", "setting": "[1]", "value": "selected"}
    ]},
    {"sequence": "ATACCAGCTTATTCAATTTATCCGCAACCCACCTAGCGCCCTACCTCGTGGGAATCCAAACCCAACCAGTCCACCCACAGATAGTAAGTGCAATCT [Apta1 biotinylated]", "values": [
      {"measurement": "binding result", "setting": "[2]", "value": "binds"},
      {"measurement": "binding result", "setting": "[3]", "value": "binds"}
    ]},
    {"sequence": "ATACCAGCTTATTCAATTTATCCGCAACCCACCTAGCGCCCTACCTCGTGGGAATCCAAACCCAACCAGTCCACCCACAGATAGTAAGTGCAATCT [Apta1]", "values": [
      {"measurement": "selection result", "setting": "[1]", "value": "selected"}
    ]}
  ]
}
